Data published in PubChem BioAssay AID1347423 (Functional Genomics Laboratory (NCATS/FGL), 2020).
Among all 52,000 sequences or so, about 210 (0.4%) were called active.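 How the source made its calls: active means gene whose silencing raises cell survival under the drug, median off-target-corrected z-score across its silencing RNAs 2 or more; inactive means the rest.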 This is one part of the list.

Assay: Resistance to Poly (ADP-Ribose) Polymerase inhibitor: Gene Identification via Genome-wide siRNA Screen
Conditions: mouse BRCA2 R2336H ES cells, olaparib, CellTiter-Glo viability; hits give high values
How it was run: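 Mouse BRCA2 R2336H ES cells were reverse-transfected with siRNA (20 nM final), treated at 48 h with 500 nM olaparib, and read by CellTiter-Glo after 72 h. Scores: MAD-based z per siRNA, median per gene, seed off-target correction.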

Sequence	z-score
GGAGAGCUUUCUGAACUGUTT against AI415330	inactive: -0.302
GGAAAACAAGCCUGUAUUUTT against Mbd4	inactive: -0.781
GGCCAAAAUCUCAACAUAUTT against Glcci1	inactive: -1.84
UUGUUGCCAAGUAUCUGUCTT against Ugt1a13	inactive: -0.843
CCAUAGCUCUGGAAUGGUGTT against C030030G16Rik	inactive: 1.2
GGGACAGUGUCCAGAAAAGTT against D130020L05Rik	inactive: -1.14
CCUUGGAGAGAGAAGACAUTT against Rpp38	inactive: -0.7
GCCUGUGAGAUCAUCUUUUTT against Pkd2	inactive: 0.347
CCUUAGGAGUACUUAAAAATT against Isl1	inactive: 0.948
GGAGGUUCUGCCCAUAACUTT against Whrn	inactive: 0.192
GGUCUUGUGGUGGUACUACTT against Elovl2	inactive: 1.82
GGCCAUGCUGAGUUAGAUATT against Slc10a3	inactive: 1.12
GGAUGCUAUGCCAAAAACUTT against Csrp1	inactive: 1.26
CCUGGUCUAUAAGGUUUGUTT against Mscp	inactive: -0.0958
GGUGCUUAAACUUCACCCUTT against Polg2	inactive: 1.68
GGGCCCAGUUGAUCAAAGATT against 1700031F13Rik	inactive: 0.00981
GGACAGUUUCACGACAACGTT against Khsrp	inactive: -2.65
GGAAAGACCACCAAAUCCCTT against 2810410M20Rik	inactive: 1.07
CGAGGUGCUAAUCUGGCCUTT against 2410015N17Rik	inactive: -1.33
GGGAAUCCUCAAAUAAAGCTT against 1810062O14Rik	inactive: -0.154
CCGAGAACCUUAAACUCCCTT against 4921515A04Rik	inactive: -0.567
GGUUGGGAGACCCAAUCUGTT against 6430559E15Rik	inactive: 1.69

Sequence	z-score
GGAGAGAAAAAGUAAUAUCTT against Fgf1	inactive: -0.941
GUAAUCUUCACCGCCUCUCTT against Olfr315	inactive: 1.85
CCCAGAAGGAUCUGCUCUUTT against 2010016F14Rik	inactive: -0.246
GUCUUCCGGACAAGACAUATT against Hoxa6	inactive: 0.439
GGAUGAGGAUUUUGAUUGGTT against Tce1	inactive: 0.402
GCUGCAUUUGUGCUACUUUTT against 1110001A07Rik	inactive: -0.106
GGCAGAAUCAGUUGAAAUUTT against Terf2ip	inactive: -0.709
GGACAGCAAUAUUACACGUTT against Zfp39	inactive: 1.79
GGGAGUCACGAAAUUACAATT against Slco6c1	inactive: -0.578
GGGCUCUUAUAACUCUUUATT against Calm4	inactive: 0.313
GGAAGAAAAGGGAUAUCAGTT against Cmya1	inactive: 0.251
GACUUACUUGCAUCACUGATT against V1rc21	inactive: 0.554
GGACACGCUUCAAAUGGAUTT against Lcmt1	inactive: 0.97
GCAUGUUGAUCAAGACUUGTT against Cdk6	inactive: -0.156
GGCUAUACUCUGAAUUCAATT against Zfp61	inactive: -0.21
GGCCUUAUGGAGUAAACUUTT against Ang3	inactive: -1.04
UUAUAUCCUGCCUUCUAUUTT against Psg28	inactive: -0.315
GGAUACAACUCCUGUGAUGTT against Hbp1	inactive: 0.349
GGUGAAAAACAACAUCUGCTT against Coq4	inactive: 0.0981
GGACAGAAUGCUGAUGUUUTT against Rgl1	inactive: -1.55
CGCAAGCCUGACAUACUGCTT against Etv3	inactive: -1.42
GGAAGGCAUAAGAAAACUGTT against Tbk1	inactive: 0.774

Four neighbouring entries from above:
Sequence	z-score
GUCUUCCGGACAAGACAUATT against Hoxa6	inactive: 0.439
GGAUGAGGAUUUUGAUUGGTT against Tce1	inactive: 0.402
GCUGCAUUUGUGCUACUUUTT against 1110001A07Rik	inactive: -0.106
GGCAGAAUCAGUUGAAAUUTT against Terf2ip	inactive: -0.709

Remaining list, next part:

Sequence	z-score
GGAGCUGUUUCCAGUUCAGTT against Tomm40	inactive: -1.85
CCGUGUUCCGAGGAUAUGUTT against Cyp2e1	inactive: 0.513
GGUGAAGAUUGAGAAGGAGTT against 2810401C16Rik	inactive: -0.799
GGUCGCACAAGGUAUUAUATT against LOC224833	inactive: 1.52
GGAGGUGAUGAUAAUCAAUTT against 6720458F09Rik	inactive: 0.579
GAGACCUUCACAAAGUUGUTT against 2810036L13Rik	inactive: 0.135
GGUAAAGAUCUUUGAAGAGTT against Tnip1	inactive: -0.463
GACUAAACAGAUCUUCUCUTT against Klra15	inactive: 0.285
GGAUAUUUUCAAUGCUGUUTT against Large	inactive: 2.29
GAAAGUGGAAGCCACCAGUTT against Olfr110	inactive: -0.546
GGGCUUCAGUAGUCUUCAATT against Sprr2j	inactive: -1.88
GGAUUUGAAAUAGGAAUAGTT against Sh3yl1	inactive: 0.551
GGCUUCUAAAAAUUUCACATT against A030012E10	inactive: -0.16
CCUCUCCUGGUCUUAACAGTT against Rem2	inactive: -1.76
GGAUAAGCGUAUUUCUUUGTT against Olfr1015	inactive: 0.516
GCAAUUAGAGAUGAAGCAATT against Ndufaf1	inactive: -1.87
GCGAAUGAGAUACGAGUACTT against Ust	inactive: -2.09
GGGAUACUUUCUUCGAGGATT against 6330407J23Rik	inactive: -0.334
CCGAAAAAUAUGUUUUCCGTT against Mettl4	inactive: -0.668
GGCACAAUUAGCUAAGAAUTT against D930038M13Rik	inactive: 1.36
CGCACAUUCUUCAUAACACTT against 3110005O21Rik	inactive: 1.34
GAUGCUAGUGAACCUCAUGTT against Olfr1020	inactive: -0.814
